Measurements reported in patent US20170129926A1 (ABCLON, published 2017).
Residue numbers refer to the chain shown, from its start. Where two headings read alike, the source gives them in different places. Each block holds one binder with its values, some of them ahead of it.

Protein sequences, listed by entry. Tags and fused reporters are not part of them. Residues count along the entry.
UniProt P05231, 30-212 limits assumed: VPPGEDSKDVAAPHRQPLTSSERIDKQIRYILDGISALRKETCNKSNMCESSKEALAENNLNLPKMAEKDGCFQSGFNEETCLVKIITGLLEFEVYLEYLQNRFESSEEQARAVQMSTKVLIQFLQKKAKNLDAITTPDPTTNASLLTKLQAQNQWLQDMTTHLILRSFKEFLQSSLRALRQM

What was measured:
human IL-6 [1] = molecular target: T1, human IL-6 (human, UniProt P05231 30-212); experiment: ELISA, captured Z-ABD, biotin-hIL-6 titrated
T1 construct: recombinant, bought (Peprotech 200-06; R&D Systems 206-IL/CF); biotinylated in the ELISAs; also called hIL-6; rhIL-6

human IL-6 [2] = molecular target: T1, human IL-6; experiment: ELISA, captured Z-ABD, biotin-hIL-6 titrated; remark: listed apart in the source

EC50 (human IL-6 [1]): 0.19 nM
B1: Z11862 (designed binder)
chain: AQHDEALEVDAKYAKEERKAWFEIHALPNLTVTQMAAFISKLFDDPSQSSELLSEAKKLNDSQAPKVDYVLAEAKVLANRELDKYGVSDYYKNLINNAKTVEGVKALIDEILAALPYVPG
notes: domain: GA3; periplasmic ABD fusion

EC50 (human IL-6 [2]): 0.32 nM
B2: Z14538 (designed binder)
chain: B1 chain with K19F, F22T, A26L, T33D, S40T
notes: as for B1

EC50 (human IL-6 [1]): 0.25 nM
B3: Z11866 (designed binder)
chain: B1 chain with R18A, K19A, F22Y, A26L, V32I, T33S, M35I
notes: as for B1

EC50 (human IL-6 [1]): 0.23 nM
B4: Z11892 (designed binder)
chain: B1 chain with K19D, F22W, T33D
notes: as for B1

EC50 (human IL-6 [2]): 0.31 nM
B5: Z14620 (designed binder)
chain: B1 chain with R18Y, K19E, F22V, A26K, V32I, T33D, S40T
notes: as for B1

EC50 (human IL-6 [1]): 0.31 nM
B6: Z11874 (designed binder)
chain: B1 chain with K19A, T33E, M35V, S40I
notes: as for B1

EC50 (human IL-6 [2]): 0.25 nM
B7: Z14547 (designed binder)
chain: B1 chain with K19H, F22T, A26L, V32I, T33D, S40T
notes: as for B1

EC50 (human IL-6 [1]): 0.36 nM
B8: Z11907 (designed binder)
chain: B1 chain with R18Q, K19H, F22L, A26K, T33E, M35I
notes: as for B1

EC50 (human IL-6 [2]): 0.25 nM
B9: Z14630 (designed binder)
chain: B1 chain with R18K, K19F, F22W, A26K, T33D, M35V, S40T
notes: as for B1

EC50 (human IL-6 [1]): 0.32 nM
B10: Z11918 (designed binder)
chain: B1 chain with K19D, A26T, S40I
notes: as for B1

EC50 (human IL-6 [1]): 0.21 nM
B11: Z11883 (designed binder)
chain: B1 chain with K19D, F22Y, A26L, V32I, T33S
notes: as for B1

EC50 (human IL-6 [1]): 0.23 nM
B12: Z11903 (designed binder)
chain: B1 chain with K19A, F22Y, A26S, T33D
notes: as for B1

EC50 (human IL-6 [2]): 0.28 nM
B13: Z14556 (designed binder)
chain: B1 chain with R18A, K19Q, F22W, T33D, M35V, S40T
notes: as for B1

EC50 (human IL-6 [1]): 0.17 nM
B14: Z11901 (designed binder)
chain: B1 chain with R18A, K19E, F22Y, A26L, T33D, S40I
notes: as for B1

EC50 (human IL-6 [1]): 0.21 nM
B15: Z11875 (designed binder)
chain: B1 chain with R18Q, K19E, F22Y, A26V
notes: as for B1

EC50 (human IL-6 [1]): 0.28 nM
B16: Z11872 (designed binder)
chain: B1 chain with R18H, K19H, F22Y, A26I, T33S, M35I
notes: as for B1

EC50 (human IL-6 [1]): 0.21 nM
B17: Z11923 (designed binder)
chain: B1 chain with K19E, A26L, V32I, T33S
notes: as for B1

EC50 (human IL-6 [2]): 0.27 nM
B18: Z14524 (designed binder)
chain: B1 chain with R18K, K19H, F22R, A26L, T33E, S40T
notes: as for B1

EC50 (human IL-6 [2]): 0.3 nM
B19: Z14609 (designed binder)
chain: B1 chain with K19M, F22M, A26L, T33E
notes: as for B1

EC50 (human IL-6 [1]): 0.31 nM
B20: Z11905 (designed binder)
chain: B1 chain with K19D, F22Y, A26L, T33H, M35I
notes: as for B1

EC50 (human IL-6 [2]): 0.25 nM
B21: Z14525 (designed binder)
chain: B1 chain with R18K, F22T, A26L, V32I, T33E, S40T
notes: as for B1

EC50 (human IL-6 [1]): 0.29 nM
B22: Z11896 (designed binder)
chain: B1 chain with K19S, F22W, A26T
notes: as for B1

EC50 (human IL-6 [1]): 0.14 nM
B23: Z11882 (designed binder)
chain: B1 chain with K19D, F22Y, A26L
notes: as for B1

EC50 (human IL-6 [1]): 0.17 nM
B24: Z11881 (designed binder)
chain: B1 chain with R18Q, K19Q, F22T, A26T, T33D
notes: as for B1

EC50 (human IL-6 [2]): 0.27 nM
B25: Z14550 (designed binder)
chain: B1 chain with K19A, T33E, M35V, S40T
notes: as for B1

EC50 (human IL-6 [1]): 0.3 nM
B26: Z11897 (designed binder)
chain: B1 chain with R18A, K19D, F22W, V32I, T33D
notes: as for B1

EC50 (human IL-6 [2]): 0.24 nM
B27: Z14596 (designed binder)
chain: B1 chain with R18Y, K19E, F22H, A26I, T33D, S40T
notes: as for B1

EC50 (human IL-6 [1]): 0.18 nM
B28: Z11912 (designed binder)
chain: B1 chain with R18A, K19A, A26T, T33D
notes: as for B1

EC50 (human IL-6 [1]): 0.2 nM
B29: Z11893 (designed binder)
chain: B1 chain with R18A, K19R, F22H, A26V, T33S, S40Q
notes: as for B1

EC50 (human IL-6 [1]): 0.23 nM
B30: Z11865 (designed binder)
chain: B1 chain with K19D, F22Y, A26L, T33E
notes: as for B1

EC50 (human IL-6 [2]): 0.23 nM
B31: Z14634 (designed binder)
chain: B1 chain with R18Y, K19H, F22Y, A26L, V32I, T33D, S40T
notes: as for B1

EC50 (human IL-6 [1]): 0.24 nM
B32: Z11904 (designed binder)
chain: B1 chain with R18Q, K19Q, F22L, A26L, V32I, T33E
notes: as for B1

EC50 (human IL-6 [1]): 0.19 nM
B33: Z11890 (designed binder)
chain: B1 chain with K19E, F22H, A26I, T33E, M35I
notes: as for B1

EC50 (human IL-6 [1]): 0.16 nM
B34: Z11933 (designed binder)
chain: B1 chain with R18A, K19H, F22Y, A26I, T33S
notes: as for B1

EC50 (human IL-6 [1]): 0.28 nM
B35: Z11895 (designed binder)
chain: B1 chain with R18A, K19Q, F22Y, A26T, T33E, S40A
notes: as for B1

EC50 (human IL-6 [1]): 0.21 nM
B36: Z11939 (designed binder)
chain: B1 chain with R18Q, K19R, F22R, A26L, V32I, T33E, A36S
notes: as for B1

EC50 (human IL-6 [2]): 0.23 nM
B37: Z14521 (designed binder)
chain: B1 chain with R18Y, K19D, F22M, A26L, T33D, S40T
notes: as for B1

EC50 (human IL-6 [2]): 0.26 nM
B38: Z14551 (designed binder)
chain: B1 chain with R18K, K19Q, F22Y, A26N, T33D
notes: as for B1

EC50 (human IL-6 [1]): 0.17 nM
B39: Z11871 (designed binder)
chain: B1 chain with K19V, F22Y, A26L, T33R
notes: as for B1

EC50 (human IL-6 [1]): 0.25 nM
B40: Z11906 (designed binder)
chain: B1 chain with K19D, F22Y, A26T, T33E, S40W
notes: as for B1

EC50 (human IL-6 [1]): 0.27 nM
B41: Z11922 (designed binder)
chain: B1 chain with K19H, F22H, A26I, V32A, T33N, M35I
notes: as for B1

EC50 (human IL-6 [1]): 0.26 nM
B42: Z11929 (designed binder)
chain: B1 chain with R18A, K19E, F22W, A26L, T33Q, M35I
notes: as for B1

EC50 (human IL-6 [1]): 0.3 nM
B43: Z11937 (designed binder)
chain: B1 chain with K19D, F22Y, A26L, V32I, T33D, M35I
notes: as for B1

EC50 (human IL-6 [2]): 0.38 nM
B44: Z14614 (designed binder)
chain: B1 chain with R18Y, K19D, F22V, T33E, M35V, S40T
notes: as for B1

EC50 (human IL-6 [2]): 0.23 nM
B45: Z14559 (designed binder)
chain: B1 chain with R18Y, K19E, F22Y, A26I, T33D, M35I, S40T
notes: as for B1
